Measurements reported in PubChem BioAssay AID1259308 (NCATS, 2017)
This is an unselected part of about 59,000 deposited reagents. About 1,510 of them (2.6%) count as active. 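Calls use total luciferase alone and ignore viability, so some active siRNAs may act by altering cell number.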 A number with no mark means an inactive call. Reagents against one gene are numbered here. Reagent sequences are not shown.

Assay: 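Knock-downs that increase output of a recombinant reporter protein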 (primary screen)
Cells: human HEK293 embryonic kidney cells stably expressing firefly luciferase (HEK-CMV-Luc2-Hygro)
Knock-down reagent: single siRNA against human genes, 0.8 pmol siRNA per well
Timing: 72 h
Read-out: 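Luciferase light (ONE-Glo) measured on one replicate plate set and viability (CellTiter-Glo) on the other, scaled to a negative control siRNA, with robust z-scores and luciferase per cell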
Direction: total luciferase, z-score and total luciferase, % of control: higher = more reporter protein produced; luciferase per cell, z-score: higher = more reporter output per viable cell; viable cells, % of control: higher = more viable cells
Hit rule: 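An siRNA counts as active if its total luciferase robust z-score exceeds 3; genes with two or more such siRNAs out of three were retested with fresh siRNAs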
Calls: active = raised luciferase; inactive = no rise

| target gene | reagent | total luciferase, z-score | total luciferase, % of control | luciferase per cell, z-score | viable cells, % of control |
| --- | --- | --- | --- | --- | --- |
| SIK1 | 1 | 0.144 | 84.8 | -0.128 | 98 |
| SIK1 | 2 | -0.496 | 72 | -0.822 | 100 |
| SIK1 | 3 | -0.647 | 69 | -0.921 | 98.3 |
| GRM3 | 1 | -0.701 | 67.9 | -1.42 | 110 |
| GRM3 | 2 | 0.891 | 99.6 | -0.3 | 120 |
| GRM3 | 3 | -0.846 | 65.1 | 0.841 | 58.3 |
| CCDC24 | 1 | 0.292 | 87.7 | 0.173 | 93.6 |
| CCDC24 | 2 | -0.466 | 72.6 | 0.177 | 77.4 |
| CCDC24 | 3 | 0.734 | 96.5 | 0.187 | 103 |
| AAR2 | 1 | 1.02 | 102 | 0.873 | 90.7 |
| AAR2 | 2 | 0.402 | 89.9 | -0.0229 | 101 |
| AAR2 | 3 | -1.14 | 59.2 | 0.192 | 62.9 |
| EIF3LP3 | 1 | -1.63 | 49.4 | -0.278 | 59.4 |
| EIF3LP3 | 2 | -0.385 | 74.2 | 0.0963 | 80.9 |
| EIF3LP3 | 3 | 0.529 | 92.4 | 0.17 | 98.7 |
| NCAPH2 | 1 | -2.06 | 40.9 | -1.49 | 67.6 |
| NCAPH2 | 2 | -0.24 | 77.1 | -0.896 | 109 |
| NCAPH2 | 3 | -0.0887 | 80.1 | 0.241 | 84 |
| ANKRD20A5P | 1 | -0.0282 | 81.3 | 0.352 | 82.8 |
| ANKRD20A5P | 2 | 0.222 | 86.3 | -0.0989 | 99 |
| ANKRD20A5P | 3 | -0.468 | 72.6 | -1.2 | 111 |
| HEYL | 1 | -2.87 | 24.7 | -4.66 | 94.2 |
| HEYL | 2 | -1.81 | 45.9 | -1.71 | 80.3 |
| HEYL | 3 | 0.183 | 85.5 | -0.606 | 112 |
| LINC00482 | 1 | 1.48 | 111 | 0.233 | 117 |
| LINC00482 | 2 | 0.69 | 95.6 | -0.094 | 110 |
| LINC00482 | 3 | -0.4 | 73.9 | -0.694 | 99.2 |
| UBE4A | 1 | -0.634 | 69.3 | -0.934 | 99 |
| UBE4A | 2 | 1.16 | 105 | 1.5 | 79.2 |
| UBE4A | 3 | 0.0448 | 82.8 | 0.134 | 89.3 |
| LMBRD2 | 1 | -0.765 | 66.7 | -1.14 | 100 |
| LMBRD2 | 2 | -0.639 | 69.2 | -1 | 101 |
| LMBRD2 | 3 | -0.399 | 74 | 0.456 | 73.3 |
| CCDC88A | 1 | 0.802 | 97.8 | 0.607 | 93.2 |
| CCDC88A | 2 | -0.138 | 79.1 | -0.534 | 102 |
| CCDC88A | 3 | 2.5 | 132 | 1.28 | 105 |
| CCDC88A | 4 | -0.114 | 79.6 | 0.179 | 84.9 |
| CCDC88A | 5 | -0.0787 | 80.3 | 1.06 | 67.9 |
| CCDC88A | 6 | 0.313 | 88.1 | -0.444 | 111 |
| C12orf76 | 1 | 2.02 | 122 | 2.25 | 75.3 |
| C12orf76 | 2 | 0.292 | 87.7 | 1.35 | 68.7 |
| C12orf76 | 3 | 0.0836 | 83.5 | 1.65 | 60.5 |
| PRSS57 | 1 | 0.759 | 97 | 0.324 | 99.5 |
| PRSS57 | 2 | 1.95 | 121 | 1.09 | 101 |
| PRSS57 | 3 | 0.578 | 93.4 | 0.81 | 84.3 |
| PLCB1 | 1 | -0.623 | 69.5 | -0.86 | 97.4 |
| PLCB1 | 2 | -0.0749 | 80.4 | 0.665 | 75.4 |
| PLCB1 | 3 | -0.0423 | 81 | -0.299 | 98 |
| SPR | 1 | -0.513 | 71.7 | -0.711 | 96.6 |
| SPR | 2 | 0.664 | 95.1 | 0.211 | 101 |
| SPR | 3 | -0.86 | 64.8 | -0.999 | 94.2 |
| IQUB | 1 | -0.223 | 77.4 | 1.49 | 58.4 |
| IQUB | 2 | -0.107 | 79.8 | 0.619 | 75.7 |
| IQUB | 3 | 0.412 | 90.1 | 0.222 | 95 |
| NKIRAS2 | 1 | -0.589 | 70.2 | -0.669 | 93.5 |
| NKIRAS2 | 2 | -1.04 | 61.3 | -1.55 | 103 |
| NKIRAS2 | 3 | -0.896 | 64.1 | -1.17 | 97.3 |
